From article PMC3784504
Results are given in words; binding and its absence hold for the method and conditions named. Binding calls can cover weak binding; strength is not graded here. Where a sequence is shown, tags or fusion partners need not be part of it. For part of these data: Binding seen in cells or lysates may run through a third protein.

Assays:
[1] = biological target: T1, histone chaperone NAP1 (Drosophila (endogenous in embryos and S2 cells)) (UniProt Q9W1G7); experiment: co-IP; IPs of NAP1 and SA from pooled high molecular weight S-300 fractions 12-14 (about 1.5 MDa) of embryo nuclear extract; immunoblot
T1 sequence: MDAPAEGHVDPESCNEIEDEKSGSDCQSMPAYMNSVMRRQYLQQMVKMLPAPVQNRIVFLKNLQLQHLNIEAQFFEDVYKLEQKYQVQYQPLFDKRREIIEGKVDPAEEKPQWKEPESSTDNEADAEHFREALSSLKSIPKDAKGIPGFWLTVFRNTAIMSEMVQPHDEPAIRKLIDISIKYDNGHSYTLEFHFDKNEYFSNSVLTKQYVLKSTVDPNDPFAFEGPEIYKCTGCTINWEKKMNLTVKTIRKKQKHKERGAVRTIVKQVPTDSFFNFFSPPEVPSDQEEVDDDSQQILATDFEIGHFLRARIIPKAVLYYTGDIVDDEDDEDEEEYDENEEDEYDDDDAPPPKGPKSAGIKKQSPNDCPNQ

[2] = biological target: T1, histone chaperone NAP1 (Drosophila (endogenous in embryos and S2 cells)); experiment: SEC; Sephacryl S-300 of the POROS-heparin 0.4 M KCl fraction of embryo nuclear extract, HEMG/100 pH 7.6; fractions immunoblotted
[3] = biological target: T1, histone chaperone NAP1 (Drosophila (endogenous in embryos and S2 cells)); experiment: co-IP; IP of SA, NAP1 or PP2A from Drosophila embryo nuclear extract; washes with 600 mM KCl, 0.1% NP40; immunoblot; mock IP with pre-immune serum
[4] = biological target: T1, histone chaperone NAP1 (Drosophila (endogenous in embryos and S2 cells)); experiment: co-IP; IPs of NAP1 and SA from pooled lower molecular weight S-300 fractions 27-29 (about 300 kDa) of embryo nuclear extract; immunoblot

| binding [1] | binding [2] | binding [3] | binding [4] | Substance |
| --- | --- | --- | --- | --- |
| binds | binds | binds |  | cohesin subunit RAD21 (Drosophila (endogenous in embryos)) |
| binds | binds |  | binds | cohesin subunit stromalin (SA) |
